Reference: article PMC12712958
Results are given in words; binding and its absence hold for the method and conditions named. Binding seen in cells or lysates may run through a third protein. Some results given as binding are weak or reduced against the parent protein; the word gives no strength.

Amino acid sequences for entries named in this document (tags omitted).
UniProt P10361: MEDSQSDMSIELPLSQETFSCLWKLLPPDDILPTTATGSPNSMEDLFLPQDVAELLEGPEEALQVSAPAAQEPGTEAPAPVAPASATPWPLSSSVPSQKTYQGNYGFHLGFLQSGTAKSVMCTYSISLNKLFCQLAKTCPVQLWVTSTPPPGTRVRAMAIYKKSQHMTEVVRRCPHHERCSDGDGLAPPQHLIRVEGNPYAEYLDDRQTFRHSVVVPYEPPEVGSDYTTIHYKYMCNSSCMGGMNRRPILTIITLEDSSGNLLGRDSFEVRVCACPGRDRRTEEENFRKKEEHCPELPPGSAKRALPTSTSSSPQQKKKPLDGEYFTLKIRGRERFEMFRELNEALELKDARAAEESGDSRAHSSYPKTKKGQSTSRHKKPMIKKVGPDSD
UniProt Q62747: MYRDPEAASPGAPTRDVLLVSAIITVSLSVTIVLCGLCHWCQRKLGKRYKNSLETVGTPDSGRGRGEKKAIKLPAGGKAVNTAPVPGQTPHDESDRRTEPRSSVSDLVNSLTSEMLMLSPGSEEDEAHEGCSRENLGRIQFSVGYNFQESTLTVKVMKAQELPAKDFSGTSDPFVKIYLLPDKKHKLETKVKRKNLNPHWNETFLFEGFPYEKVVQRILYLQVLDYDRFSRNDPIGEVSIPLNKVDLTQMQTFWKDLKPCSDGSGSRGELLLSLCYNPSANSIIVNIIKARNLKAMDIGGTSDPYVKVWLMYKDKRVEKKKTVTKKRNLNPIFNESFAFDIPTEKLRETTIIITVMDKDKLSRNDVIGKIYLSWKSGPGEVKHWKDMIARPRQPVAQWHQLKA

Molecular target: p53 (rat (endogenous in H9c2)) (UniProt P10361)
Test: co-IP; Pierce Classic IP kit; antibody on protein A/G agarose; 200 ug of H9c2 lysate, 4 °C overnight; Western blot with anti-Syt7 and anti-p53; cells with or without 1 uM CORT for 48 h, and with Syt7 siRNA

binding: binds
Substance: Synaptotagmin-7 (from UniProt Q62747 1-403)
